# PubChem BioAssay AID246 (DTP/NCI, 2004)
# The list is a part of this screen's results and no random one: it gathers tests that were run many times, whatever their T/C, doses with no T/C, and many T/C values between a quarter and a half above the control. Further doses and runs are listed elsewhere. T/C is the treated group as % of the vehicle group. Some entries give survivors of the animals treated and no T/C: the source files T/C as zero there, which appears to mark a toxic dose or a test without result, not a measured value. Some survivor counts are full or nearly so, which does not show that the dose was tolerated: the source hardly ever lists a survival T/C far under the control, and the zero likely stands for such cases as well. Counts of survivors are from the toxicity check (mostly the fifth day) where no day follows; animals may have died later. Schedule codes are those of the source, taken here to give the interval after Q, in days (D) or hours (H), and the number of doses after X. Some schedule codes hold Z or #, which are not explained here. Where survival is the endpoint, the PubChem record calls one and a half times the control and up active, and a quarter to a half above the control has no call in these data; cut-offs in other NCI protocols can differ. Some entries were tested several times; their values stand side by side, smallest first. Some T/C values are followed by the survivors on the day toxicity was checked, most often the fifth; without a count, all were alive then. Numbered stars: 1 amine (or outer) side, 2 acyl side, 3 side chain; on linkers, the order of the positions; unused ones are H or OH. Bridge positions count the residues as written; N and C are the ends. Square brackets hold non-standard residues; d marks the D form. Peptide text beside a SMILES is read from it. I, II: the chains in the order shown. Actinocin(9to1) = Cc1c2oc3c(C)ccc(C(=O)[*:1])c3nc-2c(C(=O)[*:2])c(N)c1=O; aThr = C[C@H](O)[C@H](N)C(=O)O; NMeV = CN[C@H](C(=O)O)C(C)C; Sar = CNCC(=O)O
# Tested on: BDF1 mice, P1081 chloroleukemia ip, survival T/C
# Experiment: NCI In Vivo Anticancer Drug Screen. Data for tumor model P1081 Chloroleukemia (intraperitoneal) in B6D2F1 (BDF1) mice
# Conditions: T/C endpoint: mean survival time, higher T/C = longer survival
# Method: The antitumor activity of compounds was measured in mice bearing transplantable tumors. Survival or tumor size were measured and the results are expressed as the measurement made in the treated group (T) divided by the measurement made in the vehicle treated control group (C). The tumor model used in this assay is P1081 Chloroleukemia (intraperitoneal) in B6D2F1 (BDF1) mice
# [1] = dose: 50.0 mg/kg/injection, schedule: Q01DX Z (ip), vehicle: other
# [2] = dose: 100.0 mg/kg/injection, schedule: Q01DX Z (ip), vehicle: other
# [3] = dose: 2.0 mg/kg/injection, schedule: Q01DX Z (ip), vehicle: water
# [4] = dose: 4.0 mg/kg/injection, schedule: Q01DX Z (ip), vehicle: water
# [5] = dose: 200.0 mg/kg/injection, schedule: Q01DX010 (ip), vehicle: saline
# [6] = dose: 0.12 mg/kg/injection, schedule: Q01DX Z (ip), vehicle: carboxymethylcellulose (CMC)
# [7] = dose: 0.5 mg/kg/injection, schedule: Q01DX Z (ip), vehicle: carboxymethylcellulose (CMC)
# [8] = dose: 1.0 mg/kg/injection, schedule: Q01DX Z (ip), vehicle: carboxymethylcellulose (CMC)
# [9] = dose: 125.0 mg/kg/injection, schedule: Q01DX Z (ip), vehicle: carboxymethylcellulose (CMC)
# [10] = dose: 250.0 mg/kg/injection, schedule: Q01DX010 (ip), vehicle: saline
# [11] = dose: 12.5 mg/kg/injection, schedule: Q01DX010 (ip), vehicle: saline
# [12] = dose: 400.0 mg/kg/injection, schedule: Q01DX010 (ip), vehicle: saline
# [13] = dose: 0.12 mg/kg/injection, schedule: Q01DX Z (ip), vehicle: saline
compound,measurement,setting,value
S=c1nc[nH]c2nc[nH]c12,survivor count,"dose: 5.0 mg/kg/injection, schedule: Q01DX010 (ip), vehicle: alkali diluted with saline",6 of 6
same,T/C,"dose: 6.25 mg/kg/injection, schedule: Q01DX Z (ip), vehicle: other",136 % of control
same,survivor count,"dose: 10.0 mg/kg/injection, schedule: Q01DX010 (ip), vehicle: alkali diluted with saline",6 of 6
same,T/C,"dose: 12.5 mg/kg/injection, schedule: Q01DX Z (ip), vehicle: other","110, 118, 130, 159, 169 % of control"
same,T/C,"dose: 25.0 mg/kg/injection, schedule: Q01DX Z (ip), vehicle: other","116, 127, 136, 147, 170 % of control"
same,T/C,[1],"105, 126, 134, 150 % of control"
same,survivor count,[1],6 of 6
same,T/C,"dose: 80.0 mg/kg/injection, schedule: Q01DX010 (ip), vehicle: alkali diluted with saline",125 % of control
same,T/C,[2],92 and 135 % of control
same,survivor count,[2],6 of 6
same,survivor count,"dose: 200.0 mg/kg/injection, schedule: Q01DX Z (ip), vehicle: other",6 of 6
O=C(Nc1ccc(C2=NCCCN2)cc1)c1ccc(C(=O)Nc2ccc(C3=NCCCN3)cc2)cc1,survivor count,"dose: 0.25 mg/kg/injection, schedule: Q01DX Z (ip), vehicle: water",6 of 6
same,T/C,[3],126 and 147 % of control
same,survivor count,[3],3 of 6
same,T/C,[4],138 % of control [5 of 6 alive]
same,survivor count,[4],2 of 6
same,survivor count,"dose: 8.0 mg/kg/injection, schedule: Q01DX Z (ip), vehicle: water",1 of 6
same,survivor count,"dose: 16.0 mg/kg/injection, schedule: Q01DX Z (ip), vehicle: water",1 of 6
O=C1C(NC(=O)C2CCCCC2)=C(N2CC2)C(=O)C(NC(=O)C2CCCCC2)=C1N1CC1,T/C,"dose: 18.8 mg/kg/injection, schedule: Q01DX Z (ip), vehicle: carboxymethylcellulose (CMC)",128 % of control
same,survivor count,"dose: 37.5 mg/kg/injection, schedule: Q01DX Z (ip), vehicle: carboxymethylcellulose (CMC)",6 of 6
same,survivor count,"dose: 75.0 mg/kg/injection, schedule: Q01DX Z (ip), vehicle: carboxymethylcellulose (CMC)",6 of 6
same,survivor count,"dose: 150.0 mg/kg/injection, schedule: Q01DX Z (ip), vehicle: carboxymethylcellulose (CMC)",6 of 6
same,survivor count,[5],4 of 6
same,survivor count,"dose: 300.0 mg/kg/injection, schedule: Q01DX Z (ip), vehicle: carboxymethylcellulose (CMC)",6 of 6
N#Cc1cn(C2OC(CO)C(O)C2O)c2ncnc(N)c12 (stereo unspecified),T/C,[6],128 % of control
same,survivor count,"dose: 0.25 mg/kg/injection, schedule: Q01DX Z (ip), vehicle: carboxymethylcellulose (CMC)",5 of 6
same,survivor count,[7],6 of 6
same,survivor count,[8],5 of 6
COC12C(COC(N)=O)C3=C(C(=O)C(C)=C(N)C3=O)N1CC1C2N1C (stereo unspecified),T/C,"dose: 2.5 mg/kg/injection, schedule: Q01DX Z (ip), vehicle: carboxymethylcellulose (CMC)",132 % of control
same,T/C,"dose: 5.0 mg/kg/injection, schedule: Q01DX Z (ip), vehicle: carboxymethylcellulose (CMC)",147 % of control
same,T/C,"dose: 10.0 mg/kg/injection, schedule: Q01DX Z (ip), vehicle: carboxymethylcellulose (CMC)",144 % of control
same,survivor count,"dose: 20.0 mg/kg/injection, schedule: Q01DX Z (ip), vehicle: carboxymethylcellulose (CMC)",6 of 6
O=CCC(O)C(O)C(O)CO (stereo unspecified),survivor count,[9],6 of 6
same,survivor count,"dose: 500.0 mg/kg/injection, schedule: Q01DX Z (ip), vehicle: carboxymethylcellulose (CMC)",6 of 6
same,survivor count,"dose: 1000.0 mg/kg/injection, schedule: Q01DX Z (ip), vehicle: carboxymethylcellulose (CMC)",6 of 6
CCCCNc1ncnc2c1cnn2C,survivor count,[9],5 of 6
same,survivor count,[10],2 of 6
O=NN(CCCl)C(=O)NCCCl,T/C,"dose: 8.0 mg/kg/injection, schedule: Q01DX Z (ip), vehicle: saline",126 % of control
same,T/C,[11],135 % of control
same,survivor count,"dose: 16.0 mg/kg/injection, schedule: Q01DX Z (ip), vehicle: saline",6 of 6
same,survivor count,"dose: 25.0 mg/kg/injection, schedule: Q01DX010 (ip), vehicle: saline",6 of 6
Cc1cc2nc3c(=O)[nH]c(=O)nc-3n(CC(O)C(O)C(O)C(O)CO)c2cc1C (stereo unspecified),survivor count,[12],7 of 7
O=c1cnn(C2OC(CO)C(O)C2O)c(=O)[nH]1 (stereo unspecified),survivor count,"dose: 31.0 mg/kg/injection, schedule: Q01DX Z (ip), vehicle: water",6 of 6
same,T/C,[5],145 % of control
same,T/C,[12],140 % of control
same,T/C,"dose: 800.0 mg/kg/injection, schedule: Q01DX010 (ip), vehicle: saline",135 % of control [5 of 6 alive]
"Cc1c2oc3c(C)ccc(C(=O)N[C@@H]4C(=O)N[C@H](C(C)C)C(=O)N5CCC[C@H]5C(=O)N(C)CC(=O)N(C)[C@@H](C(C)C)C(=O)O[C@H]4C)c3nc-2c(C(=O)N[C@@H]2C(=O)N[C@H](C(C)C)C(=O)N3CCC[C@H]3C(=O)N(C)CC(=O)N(C)[C@@H](C(C)C)C(=O)O[C@H]2C)c(N)c1=O (I: [aThr][dV]P[Sar][NMeV] / II: [aThr][dV]P[Sar][NMeV]; ester I:1-I:C, II:1-II:C; linker I:N-II:N via Actinocin(9to1))",T/C,"dose: 12.5 micrograms/kg/injection, schedule: Q01DX010 (ip), vehicle: other",140 % of control
same,T/C,"dose: 25.0 micrograms/kg/injection, schedule: Q01DX Z (ip), vehicle: saline",133 % of control
same,T/C,"dose: 100.0 micrograms/kg/injection, schedule: Q01DX010 (ip), vehicle: other",130 % of control
c1ccc(CCSc2ncnc3nc[nH]c23)cc1,T/C,[10],130 % of control
same,T/C,"dose: 500.0 mg/kg/injection, schedule: Q01DX010 (ip), vehicle: saline",140 % of control
OCC1OC(n2cnc3c(Cl)ncnc32)C(O)C1O (stereo unspecified),survivor count,"dose: 62.5 mg/kg/injection, schedule: Q01DX010 (ip), vehicle: saline",6 of 6
same,survivor count,[9],4 of 6
O=[n+]1c2c(n([O-])c3ccccc31)-c1cccc3cccc-2c13,survivor count,"dose: 100.0 mg/kg/injection, schedule: Q01DX010 (ip), vehicle: saline",6 of 6
same,survivor count,[5],6 of 6
C1CN1c1nc(N2CC2)nc(N2CC2)n1,T/C,[13],134 % of control
same,survivor count,[13],6 of 6
same,T/C,"dose: 0.25 mg/kg/injection, schedule: Q01DX010 (ip), vehicle: saline",127 % of control
same,T/C,"dose: 0.5 mg/kg/injection, schedule: Q01DX010 (ip), vehicle: saline",133 % of control
same,survivor count,"dose: 1.0 mg/kg/injection, schedule: Q01DX010 (ip), vehicle: saline",5 of 6
C[C@H](N)C(=O)N[C@@H]1[C@H]2C(=C(O)C[C@@H](O)[C@@H]2O)C(=O)O[C@@H]1C,survivor count,"dose: 2000.0 mg/kg/injection, schedule: Q01DX Z (ip), vehicle: saline",5 of 6
NC(=O)c1cn(C2OC(CO)C(O)C2O)c2ncnc(N)c12 (stereo unspecified),T/C,[6],149 % of control
same,survivor count,[7],6 of 6
same,survivor count,[8],3 of 6
C[C@H]1C(=O)O[C@@H]2CCN3CC=C(COC(=O)[C@](C)(O)[C@@]1(C)O)[C@H]23,T/C,"dose: 6.25 mg/kg/injection, schedule: Q01DX010 (ip), vehicle: saline",125 % of control
same,T/C,[11],125 % of control
same,T/C,"dose: 120.0 mg/kg/injection, schedule: Q01DX Z (ip), vehicle: carboxymethylcellulose (CMC)",133 % of control
same,survivor count,"dose: 240.0 mg/kg/injection, schedule: Q01DX Z (ip), vehicle: carboxymethylcellulose (CMC)",0 of 6
same,survivor count,"dose: 480.0 mg/kg/injection, schedule: Q01DX Z (ip), vehicle: carboxymethylcellulose (CMC)",0 of 6
CSc1ncnc2c1ncn2C1OC(CO)C(O)C1O (stereo unspecified),T/C,"dose: 6.25 mg/kg/injection, schedule: Q01DX Z (ip), vehicle: carboxymethylcellulose (CMC)",138 % of control
same,survivor count,"dose: 50.0 mg/kg/injection, schedule: Q01DX Z (ip), vehicle: carboxymethylcellulose (CMC)",4 of 6
